In publication PMC12481576, “Barbituric Acid Derivatives as Covalent Inhibitors of Leishmania braziliensis Dihydroorotate Dehydrogenase” (Journal of Medicinal Chemistry, 2025):
Like-named read-outs stand apart in the source and are kept apart here.

Tests used:
[1] = mouse liver microsomes, raw LC-MS area; for Raw data: analyte peak area, T=0: 0 min; for Raw data: analyte peak area, T=5: 5 min; for Raw data: analyte peak area, T=10: 10 min; for Raw data: analyte peak area, T=20: 20 min; for Raw data: analyte peak area, T=30: 30 min; for Raw data: analyte peak area, T=60: 60 min
[2] = Mouse liver microsome stability in the absence of cofactors (NCF); conditions: mouse liver microsomes, 60 min, no cofactor (NCF), raw LC-MS area

CC(C)NCC(O)COc1ccc(CC(N)=O)cc1 (centres unmarked) [Atenolol]
Raw data: analyte peak area, T=0 ([1]; replicate 1 (left block)): 19339
Raw data: analyte peak area, T=0 ([1]; replicate 2 (right block)): 26048
Raw data: analyte peak area, T=5 ([1]; replicate 1 (left block)): 22550
Raw data: analyte peak area, T=5 ([1]; replicate 2 (right block)): 23821
Raw data: analyte peak area, T=10 ([1]; replicate 1 (left block)): 21659
Raw data: analyte peak area, T=10 ([1]; replicate 2 (right block)): 23305
Raw data: analyte peak area, T=20 ([1]; replicate 1 (left block)): 19803
Raw data: analyte peak area, T=20 ([1]; replicate 2 (right block)): 17879
Raw data: analyte peak area, T=30 ([1]; replicate 1 (left block)): 17561
Raw data: analyte peak area, T=30 ([1]; replicate 2 (right block)): 17623
Raw data: analyte peak area, T=60 ([1]; replicate 1 (left block)): 19289
Raw data: analyte peak area, T=60 ([1]; replicate 2 (right block)): 20334
Raw data: analyte peak area, T=60 NCF ([2]; replicate 1 (left block)): 21227
Raw data: analyte peak area, T=60 NCF ([2]; replicate 2 (right block)): 25265
